Data on 8 targets can be found in the supplement of paper PMC12819154, “High-throughput peptide-centric local stability assay extends protein–ligand identification to membrane proteins, tissues and bacteria” (Nature Structural & Molecular Biology, 2025).

Protein sequences, listed by entry. Tags and fused reporters are not part of them. Lines headed by an entry give the natural chain unless they say otherwise; changes in a name come on top.
UniProt P12955: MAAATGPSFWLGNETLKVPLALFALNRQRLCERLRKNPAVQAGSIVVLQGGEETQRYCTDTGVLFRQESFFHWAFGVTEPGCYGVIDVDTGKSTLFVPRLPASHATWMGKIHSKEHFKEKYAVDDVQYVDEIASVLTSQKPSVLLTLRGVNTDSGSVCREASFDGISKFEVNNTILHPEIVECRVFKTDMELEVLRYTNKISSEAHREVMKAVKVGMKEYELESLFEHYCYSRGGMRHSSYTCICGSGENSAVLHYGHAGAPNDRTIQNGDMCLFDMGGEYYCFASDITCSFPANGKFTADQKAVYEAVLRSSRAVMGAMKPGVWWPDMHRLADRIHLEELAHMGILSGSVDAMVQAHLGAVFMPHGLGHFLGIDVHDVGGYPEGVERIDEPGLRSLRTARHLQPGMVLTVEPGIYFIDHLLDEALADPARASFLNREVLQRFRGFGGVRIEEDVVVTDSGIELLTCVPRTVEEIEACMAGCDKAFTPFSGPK
UniProt P07737, whole entry: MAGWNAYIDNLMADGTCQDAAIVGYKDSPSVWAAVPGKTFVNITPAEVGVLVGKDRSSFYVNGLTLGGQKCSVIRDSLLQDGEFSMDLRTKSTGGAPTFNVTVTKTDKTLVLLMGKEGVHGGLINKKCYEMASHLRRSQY
UniProt P08559, whole entry: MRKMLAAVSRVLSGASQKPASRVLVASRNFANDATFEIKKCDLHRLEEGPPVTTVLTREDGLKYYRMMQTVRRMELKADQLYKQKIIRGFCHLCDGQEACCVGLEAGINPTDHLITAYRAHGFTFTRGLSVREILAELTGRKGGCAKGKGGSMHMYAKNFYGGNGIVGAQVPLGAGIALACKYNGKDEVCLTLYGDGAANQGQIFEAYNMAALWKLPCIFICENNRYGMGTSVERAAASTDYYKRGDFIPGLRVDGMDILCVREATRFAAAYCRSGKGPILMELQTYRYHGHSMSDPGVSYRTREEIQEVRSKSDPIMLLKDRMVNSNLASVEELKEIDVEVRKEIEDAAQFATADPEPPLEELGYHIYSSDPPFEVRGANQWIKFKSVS
UniProt P06401: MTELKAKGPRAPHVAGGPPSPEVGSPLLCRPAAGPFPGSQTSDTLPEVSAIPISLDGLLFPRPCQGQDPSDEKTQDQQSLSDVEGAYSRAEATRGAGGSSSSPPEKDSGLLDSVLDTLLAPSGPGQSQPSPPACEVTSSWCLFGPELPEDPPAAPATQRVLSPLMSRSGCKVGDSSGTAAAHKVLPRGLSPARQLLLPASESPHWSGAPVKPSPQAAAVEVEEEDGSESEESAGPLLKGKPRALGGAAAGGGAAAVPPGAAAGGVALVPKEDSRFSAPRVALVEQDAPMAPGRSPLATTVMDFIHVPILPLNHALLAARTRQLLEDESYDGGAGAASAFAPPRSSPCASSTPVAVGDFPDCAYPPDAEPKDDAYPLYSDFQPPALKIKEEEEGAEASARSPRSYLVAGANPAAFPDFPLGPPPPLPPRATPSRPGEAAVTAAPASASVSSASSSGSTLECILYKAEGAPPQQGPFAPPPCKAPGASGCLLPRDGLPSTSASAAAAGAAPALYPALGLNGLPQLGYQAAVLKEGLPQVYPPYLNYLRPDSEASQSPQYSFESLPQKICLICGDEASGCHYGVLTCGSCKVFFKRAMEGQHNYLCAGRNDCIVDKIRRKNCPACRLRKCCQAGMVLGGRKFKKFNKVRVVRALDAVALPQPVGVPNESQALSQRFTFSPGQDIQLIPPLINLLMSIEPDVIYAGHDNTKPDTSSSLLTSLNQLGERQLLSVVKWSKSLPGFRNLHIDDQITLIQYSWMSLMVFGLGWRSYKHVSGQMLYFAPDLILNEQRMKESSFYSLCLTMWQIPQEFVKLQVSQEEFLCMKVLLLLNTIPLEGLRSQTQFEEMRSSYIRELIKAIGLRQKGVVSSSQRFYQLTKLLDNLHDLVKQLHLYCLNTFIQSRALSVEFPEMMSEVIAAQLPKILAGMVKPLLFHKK
UniProt P0DTL6: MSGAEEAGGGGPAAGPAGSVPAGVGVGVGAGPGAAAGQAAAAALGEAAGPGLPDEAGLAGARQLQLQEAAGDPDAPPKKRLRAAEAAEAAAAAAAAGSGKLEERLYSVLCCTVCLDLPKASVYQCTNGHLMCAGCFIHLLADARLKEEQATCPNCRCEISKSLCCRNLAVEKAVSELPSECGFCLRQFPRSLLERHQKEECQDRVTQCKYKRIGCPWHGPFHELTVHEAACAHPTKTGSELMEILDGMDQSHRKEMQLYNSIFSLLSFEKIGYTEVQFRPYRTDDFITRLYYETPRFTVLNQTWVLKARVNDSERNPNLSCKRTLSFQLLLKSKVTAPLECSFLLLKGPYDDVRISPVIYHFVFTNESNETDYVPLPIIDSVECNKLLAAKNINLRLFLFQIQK
UniProt P13612, whole entry: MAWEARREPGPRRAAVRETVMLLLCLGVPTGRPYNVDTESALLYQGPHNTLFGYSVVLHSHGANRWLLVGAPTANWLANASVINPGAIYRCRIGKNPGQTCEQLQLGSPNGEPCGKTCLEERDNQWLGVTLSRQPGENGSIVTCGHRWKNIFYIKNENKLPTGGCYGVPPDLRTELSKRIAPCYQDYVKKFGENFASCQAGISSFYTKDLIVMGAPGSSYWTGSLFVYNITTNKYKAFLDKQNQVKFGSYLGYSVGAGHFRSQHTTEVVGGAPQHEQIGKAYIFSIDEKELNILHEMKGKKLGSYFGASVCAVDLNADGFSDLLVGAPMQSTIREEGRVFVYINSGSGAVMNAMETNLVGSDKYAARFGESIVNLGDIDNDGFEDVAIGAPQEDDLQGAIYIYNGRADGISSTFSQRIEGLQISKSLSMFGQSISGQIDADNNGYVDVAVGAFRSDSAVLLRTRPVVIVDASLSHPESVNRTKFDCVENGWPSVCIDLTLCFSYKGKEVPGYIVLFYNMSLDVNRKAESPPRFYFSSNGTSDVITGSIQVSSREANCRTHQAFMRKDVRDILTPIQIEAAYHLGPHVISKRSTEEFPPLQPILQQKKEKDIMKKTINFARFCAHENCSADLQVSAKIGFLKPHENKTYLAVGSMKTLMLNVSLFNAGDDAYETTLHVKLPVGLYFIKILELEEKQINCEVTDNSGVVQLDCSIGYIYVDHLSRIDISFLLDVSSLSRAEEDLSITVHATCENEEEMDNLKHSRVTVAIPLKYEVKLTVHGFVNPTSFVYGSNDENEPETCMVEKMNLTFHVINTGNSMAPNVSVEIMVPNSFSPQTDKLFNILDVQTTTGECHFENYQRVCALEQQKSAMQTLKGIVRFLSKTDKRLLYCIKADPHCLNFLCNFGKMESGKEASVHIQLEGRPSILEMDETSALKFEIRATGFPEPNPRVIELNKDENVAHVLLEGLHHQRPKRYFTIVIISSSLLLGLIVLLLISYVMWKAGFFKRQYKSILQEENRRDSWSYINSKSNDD
UniProt P08195: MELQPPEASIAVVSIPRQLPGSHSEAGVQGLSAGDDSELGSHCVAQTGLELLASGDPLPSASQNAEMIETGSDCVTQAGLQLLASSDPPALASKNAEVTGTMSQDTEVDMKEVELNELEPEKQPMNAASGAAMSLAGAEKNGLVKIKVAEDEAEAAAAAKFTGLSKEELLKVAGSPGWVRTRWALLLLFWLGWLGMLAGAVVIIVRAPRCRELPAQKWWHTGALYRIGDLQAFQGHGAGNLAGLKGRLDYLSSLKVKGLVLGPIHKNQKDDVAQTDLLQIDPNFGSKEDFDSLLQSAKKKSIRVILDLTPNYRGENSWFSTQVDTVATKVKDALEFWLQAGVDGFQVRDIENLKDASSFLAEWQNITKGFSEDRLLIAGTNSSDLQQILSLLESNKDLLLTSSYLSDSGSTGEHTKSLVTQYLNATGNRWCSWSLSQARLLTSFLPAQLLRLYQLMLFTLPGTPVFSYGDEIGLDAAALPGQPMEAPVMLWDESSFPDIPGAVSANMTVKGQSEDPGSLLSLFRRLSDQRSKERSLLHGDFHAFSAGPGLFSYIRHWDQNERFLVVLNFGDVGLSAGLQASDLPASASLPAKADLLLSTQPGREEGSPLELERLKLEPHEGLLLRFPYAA
UniProt P04818: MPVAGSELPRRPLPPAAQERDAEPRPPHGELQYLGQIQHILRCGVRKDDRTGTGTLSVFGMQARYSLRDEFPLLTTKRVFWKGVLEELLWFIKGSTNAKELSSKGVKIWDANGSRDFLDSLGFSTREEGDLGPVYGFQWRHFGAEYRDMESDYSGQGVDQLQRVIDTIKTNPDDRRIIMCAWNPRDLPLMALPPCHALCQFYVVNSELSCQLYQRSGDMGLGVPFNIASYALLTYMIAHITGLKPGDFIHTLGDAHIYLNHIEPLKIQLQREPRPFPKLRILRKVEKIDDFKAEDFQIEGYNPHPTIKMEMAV

Some of the results follow. Most values lie at the level of the controls, where differences are scatter.

Compound in this test: Cc1nc(Nc2ncc(C(=O)Nc3c(C)cccc3Cl)s2)cc(N2CCN(CCO)CC2)n1 [dasatinib]
The test is described as follows: log2 fold change of tryptic peptide abundance, ligand vs vehicle (limited proteolysis) (log2 ratio); higher = more trypsin-susceptible (destabilized). The settings on record: ligand concentration: 5 uM; sample: K562 cleared lysate.
As to “PEPD (peptide sequence: AFTPFSGPK, peptide start residue: 485) (UniProt P12955)”, the log2 fold change was 0.0435.
As for “PFN1 (peptide sequence: CYEMASHLRR, peptide start residue: 128) (UniProt P07737)”, the figure is 0.165; as for “PDHA1 (peptide sequence: VDGMDILCVR, peptide start residue: 254) (UniProt P08559)”, 0.192.
As for “UniProt P06401 (peptide sequence: KNCPACR, peptide start residue: 471)”, the figure is -0.448.
Regarding “E9PJD7 (peptide sequence: HQKEECQDR, peptide start residue: 196) (UniProt P0DTL6)”, the log2 fold change was -0.753.
As for “ITGA4 (peptide sequence: IEGLQISK, peptide start residue: 418) (UniProt P13612)”, the figure is 0.183; as for “SLC3A2 (peptide sequence: IGDLQAFQGHGAGNLAGLK, peptide start residue: 227) (UniProt P08195)”, -0.35; as for “TYMS (peptide sequence: DAEPRPPHGELQYLGQIQHILR, peptide start residue: 21) (UniProt P04818)”, -0.17.
